From patent US20220227887A1 (ONO PHARMACEUTICAL, published 2022)

Legend:
Experiment in all cases: flow cytometry of DO11.10 cells expressing the mouse/human LAG3 chimera
[1] = target: mLAG-3 hD2
[2] = target: mLAG-3 hD3
[3] = target: mLAG-3 hD4

Measured: binding

B1: anti-mouse LAG3 antibody TKB58 (antibody, V domains shown)
VH: VQLQQSGAELVRPGALVKLSCKASGFNIKDYYMHWVKQRPEQGLEWIGWIDPENGNTIYDPKFQDKASLTADTSSNTAYLQLSSLTSEDTAVYYCAPERGYDYAMDYWGQGTSVTVSS
VL: IVLTQSPATLSVTPGDSVSLSCRASQSISNNLHWYQQKSHESPRLLIKYASQSISGIPSRFSGSGSGTDFTLSINSVETEDFGMYFCQQSNSWPQYTFGGGTKLEIK
notes: Full-form antibody; also called TKB58 antibody; full-form anti-mouse LAG3 antibody
binds: all assays above

No constants are given. Whether binding was seen depends on the method and setting. A result given as binding can be weak or reduced; the word gives no strength.
